In patent US20020049190A1, “Pharmaceutical compositions comprising metal complexes” (priority 1999, published 2002):
Several values for one entry are separate records, joined by “and”; a condition that tells them apart may be missing. Equal values may be shown once.

Test: In vitro test of NO uptake: manometer pressure and IR spectrum of freeze-dried product
Assay type: binding
Details: freeze-dried reaction solution after the in vitro NO test
Experimental: The resulting solution was placed in a three-necked pear-shaped flask and stirred by a magnetic stirrer at constant speed of 1000 rpm, at a constant temperature in the range 20° C.-24° C. A manometer was attached to the flask, and purified, dried nitric oxide gas (known volume in the range 3-5cm^3) was introduced via a septum, using a gas syringe, at atmospheric pressure into the headspace above the reaction solution. The pressure within the flask was recorded periodically over a period of one hour.
A control experiment was carried out according to the above but without any complex present.
On completion of each in vitro test, the reaction solution was freeze-dried. An infrared spectrum of the freeze-dried product provided information on metal-NO bond formation.

| Compound | IR peak indicating the presence of a Ru-NO bond |
| --- | --- |
| CS(C)=O.CS(C)=O.N.[Cl-].[Cl-].[Cl-].[Ru+3] [Example 20, [RuCl3(dmso)2(NH3)]] | 1889 cm⁻¹ |
| CS(C)=O.CS(C)=O.CS(C)=O.N.[Cl-].[Cl-].[Ru+2] [Example 23, cis-[RuCl2(dmso)3(NH3)]] | 1893 cm⁻¹ |
| O.O=C([O-])c1cccc(C(=O)[O-])n1.O=C([O-])c1cccc(C(=O)[O-])n1.[K+].[Ru+3] [Example 4, K[Ru(dipic)2]H2O] | 1915 cm⁻¹ |
| O.O=C([O-])CN(CCO)CCN(CC(=O)[O-])CC(=O)[O-].[Cl-].[K+].[Ru+3] [Example 3, K[Ru(hedtra)Cl]H2O] | 1889 cm⁻¹ |
| CS(C)=O.CS(C)=O.CS(C)=O.CS(C)=O.[Cl][Ru][Cl] [Example 22, Cis-[RuCl2(dmso)4]] | 1881 cm⁻¹ |
| K[Ru(H2dtpa)Cl]H2O [Example 8] | 1905 cm⁻¹ |
| O.O=C([O-])CN(CCN(CC(=O)O)CC(=O)O)CC(=O)[O-].[Cl-].[Cl-].[K+].[Ru+3] [Example 6, K[Ru(H2edta)Cl2]H2O] | 1896 cm⁻¹ |
| Cc1occc(=O)c1[O][Ru]([O]c1c(C)occc1=O)[O]c1c(C)occc1=O [Example 26, [Ru(maltol)3]] | 1866 cm⁻¹ |
| (H2pic)[RuCl2(pic)2](Hpic)H2O [Example 5] | 1888 cm⁻¹ |
| CC#N.CC#N.CC(=O)C=C(C)[O-].CC(=O)C=C(C)[O-].O=S(=O)([O-])C(F)(F)F.[Ru+3] [Example 27, [Ru(acac)2(MeCN)2](CF3SO3)] | 1899 cm⁻¹ |
| K[RuCl4(bipy)] [Example 19] | 1885 cm⁻¹ |
| K[Ru(hnta)2]½H2O [Example 7] | 1889 cm⁻¹ |
| O.[Cl-].[Cl-].[Cl][Ru]([Cl])[Cl].[K+].[K+] [Example 28, K2[RuCl5(H2O)]] | 1903 cm⁻¹ |
| [Ru3O(lac)6](lac) [Example 9] | 1884 cm⁻¹ |
| [Ru3O(OAc)6](OAc) [Example 10] | 1877 cm⁻¹ |
| O=C([O-])C(=O)[O-].O=C([O-])C(=O)[O-].O=C([O-])C(=O)[O-].[K+].[K+].[K+].[Ru+3] [Example 13, K3[Ru(ox)3]] | 1889 cm⁻¹ |
| O.O.O=C([O-])CN(CCN(CC(=O)[O-])CC(=O)O)CC(=O)[O-].[Cl-].[K+].[Ru+3] [Example 1, K[Ru(hedta)Cl]2H2O] | 1897 cm⁻¹ |
| CC(=O)[O-].CC(=O)[O-].CC(=O)[O-].CC(=O)[O-].[Cl-].[Ru+3].[Ru+3] [Example 14, [Ru2(OAc)4]Cl] | 1895 cm⁻¹ |
| O.O=C([O-])C(=O)[O-].[Os+2].c1ccc(-c2ccccn2)nc1.c1ccc(-c2ccccn2)nc1 [Example 29, [Os(ox)(bipy)2].H2O] | 1894 cm⁻¹ |
| NCCN.NCCN.NCCN.[I-].[I-].[I-].[Ru+3] [Example 16, [Ru(en)3]I3] | 1906 cm⁻¹ |
| O.[Cl-].[Cl-].[Cl-].[Cl-].[K+].[Ru+3].c1cnc2c(c1)ccc1cccnc12 [Example 17, K[RuCl4(phen)]H2O] | 1904 cm⁻¹ |
| N.N.N.N.N.N.[Cl-].[Cl-].[Cl-].[Ru+3] [Example 21, [Ru(NH3)6]Cl3] | 1910 cm⁻¹ |
| CC(=O)[O-].CC(=O)[O-].CC(=O)[O-].CC(=O)[O-].O=[N+]([O-])[O-].[Ru+3].[Ru+3] [Example 11, [Ru2(OAc)4]NO3] | 1891 cm⁻¹ |
| [Ru(NH3)5Cl]Cl2 [Example 15] | 1909 cm⁻¹ and 1928 cm⁻¹ |
| CC(=O)C=C(C)[O-].O=C([O-])CN(CCN(CC(=O)O)CC(=O)O)CC(=O)[O-].[Ru+3] [Example 2, [Ru(H2edta)(acac)]] | 1896 cm⁻¹ |
| [Ru(mtc)3] [Example 25] | 1862 cm⁻¹ |
| CS(C)=O.CS(C)=O.CS(C)=O.[Cl-].[Cl-].[Cl-].[Ru+3] [Example 24, [RuCl3(dmso)3]] | 1880 cm⁻¹ |
| CCC(=O)[O-].CCC(=O)[O-].CCC(=O)[O-].CCC(=O)[O-].O=[N+]([O-])[O-].[Ru+3].[Ru+3] [Example 12, [Ru2(OCOEt)4]NO3] | 1891 cm⁻¹ |
